The results in this text go back to PMC6828814, “A cryptic hydrophobic pocket in the polo-box domain of the polo-like kinase PLK1 regulates substrate recognition and mitotic chromosome segregation” (Scientific Reports, 2019).

Sequences of proteins named here, by UniProt entry; tags and fusion partners are left off.
UniProt Q8NHV4: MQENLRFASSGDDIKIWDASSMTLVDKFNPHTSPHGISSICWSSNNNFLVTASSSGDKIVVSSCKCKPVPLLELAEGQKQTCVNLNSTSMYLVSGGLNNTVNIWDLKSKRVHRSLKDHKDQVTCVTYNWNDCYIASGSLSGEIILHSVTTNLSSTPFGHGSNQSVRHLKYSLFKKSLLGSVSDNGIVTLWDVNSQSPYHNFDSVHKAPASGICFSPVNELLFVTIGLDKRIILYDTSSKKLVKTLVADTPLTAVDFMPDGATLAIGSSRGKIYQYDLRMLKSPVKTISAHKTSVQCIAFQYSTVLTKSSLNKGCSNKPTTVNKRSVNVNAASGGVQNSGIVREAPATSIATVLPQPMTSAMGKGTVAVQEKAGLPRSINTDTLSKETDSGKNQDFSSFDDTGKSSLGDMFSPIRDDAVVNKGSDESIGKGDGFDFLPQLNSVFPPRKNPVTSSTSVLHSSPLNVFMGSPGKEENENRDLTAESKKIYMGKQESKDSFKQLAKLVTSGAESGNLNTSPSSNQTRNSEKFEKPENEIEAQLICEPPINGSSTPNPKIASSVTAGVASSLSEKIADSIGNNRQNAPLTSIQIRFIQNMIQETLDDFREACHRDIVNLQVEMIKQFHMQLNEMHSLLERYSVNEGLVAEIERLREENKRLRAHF

The assay has as its target GFP-PLK1AM (full-length human PLK1 with the phospho-substrate binding groove mutations H538A, K540M, N-terminally fused to enhanced GFP) (human) (UniProt P53350). Nature of the assay: co-IP; GFP-Trap beads pull down GFP-PLK1 (Wt/AAD/AM) from lysates of HeLa cells synchronised in mitosis by double thymidine block and release; immunoblot with anti-NEDD1; band intensity of the IP normalised to its input lane. On the technique in general: A western blot detects proteins with antibodies after separation by electrophoresis.

Results are given in words; binding and its absence hold for the method and conditions named. Binding seen in cells or lysates may run through a third protein.

As for “NEDD1 (Neural precursor cell Expressed Developmentally Downregulated gene1) (from UniProt Q8NHV4 1-660)”, the binding entry is given as “no binding”.
